Counter-ions that a name gives are not always drawn. Some of the results follow. This is a noisy data set.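 Yeast growth was read as optical density at 600 nm. The two-hybrid strains grew without histidine, so growth needed the Pex3–Pex19 binding; a compound counted as trypanosome-selective if it cut growth of the trypanosome-pair strain by more than 65% and the human-pair strain by less than 65%.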
What follows are compounds tested on Saccharomyces cerevisiae HF7c pdr5Δ (assay: general growth inhibition of yeast HF7c pdr5Δ in -Leu -Trp medium, relative to DMSO; higher = stronger general growth inhibition). Details: 100 µM; 24 h.

Compound	general growth inhibition [%]
NS(=O)(=O)c1cccc2c1c([N+](=O)[O-])cc1nc(O)c(O)nc12 [NBQX disodium]	48
O=C(c1cc(O)c(O)c([N+](=O)[O-])c1)c1ccccc1F	63.8
CSC(=N)NCCC[C@H](N)C(=O)O [S-Methyl-L-thiocitrulline acetate]	50.5
Nc1ccn([C@@H]2O[C@H](CO)[C@@H](O)[C@@H]2O)c(=O)n1 [Cytosine-1-beta-D-arabinofuranoside hydrochloride]	6.59
C[C@@H](c1ncncc1F)[C@](O)(Cn1cncn1)c1ccc(F)cc1F [Voriconazole]	84.7
CC(C)NCC(O)c1ccc(O)c(O)c1 (racemic) [(±)-Isoproterenol hydrochloride]	23.4
NC(=O)c1ncn([C@@H]2O[C@H](CO)[C@@H](O)[C@H]2O)n1 [Ribavirin]	51
CCc1ccc(/C=C2/SC(=S)NC2=O)cc1	34.6
Cc1c(O)cccc1C(=O)N[C@@H](CSc1ccccc1)[C@H](O)CN1C[C@H]2CCCC[C@H]2C[C@H]1C(=O)NC(C)(C)C [Nelfinavir mesylate hydrate]	10.6
Cc1cc(N)c2ccccc2[n+]1CCCCCCCCCC[n+]1c(C)cc(N)c2ccccc21 [Dequalinium chloride hydrate]	87.2
C[C@]12C=CC(=O)C=C1CC[C@H]1[C@@H]3C[C@@H](O)[C@](O)(C(=O)CO)[C@@]3(C)C[C@H](O)[C@@]12F [Triamcinolone]	54.1
N[C@H]1CONC1=O [L-Cycloserine]	45.3

Part of the list above, as comma-separated lines:
Compound,general growth inhibition [%]
C[C@]12C=CC(=O)C=C1CC[C@H]1[C@@H]3C[C@@H](O)[C@](O)(C(=O)CO)[C@@]3(C)C[C@H](O)[C@@]12F [Triamcinolone],54.1
N[C@H]1CONC1=O [L-Cycloserine],45.3

Each compound was assayed on human PEX3-PEX19 interaction (yeast two-hybrid) (assay: growth inhibition of yeast two-hybrid strain reporting HsPex3-HsPex19 interaction, relative to DMSO; higher = stronger inhibition of human Pex3-Pex19 interaction / growth). Details: 100 µM; 24 h; 3-aminotriazole 10 mM.

Compound	growth inhibition [%]
CCCCC1(C2CCCC2)Cc2cc(OCC(=O)O)c(Cl)c(Cl)c2C1=O (stereo in doubt) [R(+)-Butylindazone]	60.4
O=C(O)Cn1c(C(=O)Nc2nc(-c3ccccc3Cl)cs2)cc2ccccc21	23.9
NC(Cc1cccc(-c2ccccc2CP(=O)(O)O)c1)C(=O)O (stereo not drawn) [Phenylbenzene-omega-phosphono-alpha-amino acid]	31.8
COc1cc(N)c(Cl)cc1C(=O)OCCN1CCCCC1	35.3
COc1ccc2cc([C@H](C)C(=O)O)ccc2c1 [(-)-Naproxen sodium]	32.1
O=c1c(O)c(-c2ccc(O)cc2O)oc2cc(O)cc(O)c12 [Morin]	42.3
CCCCc1ncc(/C=C(\Cc2cccs2)C(=O)O)n1Cc1ccc(C(=O)O)cc1 [Eprosartan mesylate]	7.23
CN(C)C(=O)C(CCN1CCC(O)(c2ccc(Cl)cc2)CC1)(c1ccccc1)c1ccccc1 [Loperamide hydrochloride]	36.3
COc1ccccc1N1CCN(CCN(C(=O)C2CCCCC2)c2ccccn2)CC1	9.53
O=C(O)c1cccnc1Nc1cccc(C(F)(F)F)c1 [Niflumic acid]	47.9
CNC(=N)NCCC[C@H](N)C(=O)O [NG-Monomethyl-L-arginine acetate]	48.4
Cc1nc2c(OCc3ccccc3)cccn2c1CC#N	38.7
NC(N)=NCc1cccc(I)c1 [m-Iodobenzylguanidine hemisulfate]	8.34
Cn1cnc([N+](=O)[O-])c1Sc1ncnc2[nH]cnc12 [Azathioprine]	49.4
Oc1ccc(/C=C/c2cc(O)cc(O)c2)cc1 [Resveratrol]	42.8
COC(=O)C1=CO[C@@H](O)[C@@H]2C(CO)=CC[C@H]12 [Genipin]	14.6
CN1CCc2ccccc2Cc2[nH]c3ccccc3c2CC1	45
Clc1ccccc1C(c1ccccc1)(c1ccccc1)n1ccnc1 [Clotrimazole]	60.5
CC(=O)N1CCN(c2ccc(OCC3COC(Cn4ccnc4)(c4ccc(Cl)cc4Cl)O3)cc2)CC1 (stereo unspecified) [Ketoconazole]	80.5
CCN1CCCC1CNC(=O)c1cc(S(N)(=O)=O)ccc1OC (single isomer, unassigned; (-)) [(-)-Sulpiride]	52.1
O=C(Nc1ccncc1)c1cc([N+](=O)[O-])ccc1Cl	18
CCCCC#Cc1nc(NC)c2ncn([C@@H]3O[C@H](CO)[C@@H](O)[C@H]3O)c2n1	48.8
Cc1nnc(C(C)C)n1C1C[C@H]2CC[C@@H](C1)N2CC[C@H](NC(=O)C1CCC(F)(F)CC1)c1ccccc1 (stereo in doubt) [Maraviroc]	43
O=C(Nc1ccc([N+](=O)[O-])cc1Cl)c1cc(Cl)ccc1O [Niclosamide]	20.9
